Measurements published in US10149830B2, “Pharmaceutical agents and methods relating thereto” (Cushing Academy, priority 2016, dated 2018).

System: MCF-7 (breast adenocarcinoma)
Test: MTT reduction cytotoxicity assay, MCF-7
Type: cell-based
Details: Homo sapiens, MCF7, MCF-7, MTT, 72 h incubation
Experimental: The human tumor cell lines used were HL-60 (promyelocytic leukemia), MCF-7 (breast adenocarcinoma) and NCI-H292 (lung carcinoma). The cells were obtained from Rio de Janeiro Cell Bank (RJ, Brazil). Cancer cells were maintained in RPMI 1640 medium or DMEN supplemented with 10% fetal bovine serum, 2 mM glutamine, 100 U/mL penicillin, 100 μg/mL streptomycin at 37° C. with 5% CO2. Cytotoxicity of (6R)-6-[(2Z)-pent-2-enyl]-5,6-dihydro-2H-pyran-2-one [(R)-(−)-Tuberolactone] against the three tumor cell lines was assessed using the 3-(4,5-dimethyl-2-thiazolyl)-2,5-diphenyl-2H tetrazolium bromide (MTT) (Sigma Aldrich Co., St. Louis, Mo., USA) reduction assay. Tumor cells were plated in 96-well plates (10^5 cells/mL for adherent cells or 3×10^5 cells/mL for Leukemia). (6R)-6-[(2Z)-pent-2-enyl]-5,6-dihydro-2H-pyran-2-one [(R)-(−)-Tuberolactone] in DMSO (0.3-25 μg/mL) were added to each well and incubated for 72 h. Control groups received the same amount of DMSO. After 69 h of treatment, 25 μL of MTT (5 mg/mL) was added. Three hours later, the MTT formazan product was dissolved in 100 μL of DMSO. Absorbance was measured at 595 nm in plate spectrophotometer (Varioskan Flash, Thermo Scientific). […] IC50 values and their 95% confidence intervals for two different experiments were obtained by non linear regression using Graphpad Prism version 5.0 for Windows (GraphPad Software, San Diego, Calif., USA).

## COc1cccc2c1C(=O)c1c(O)c3c(c(O)c1C2=O)C[C@@](O)(C(=O)CO)C[C@@H]3O[C@H]1C[C@H](N)[C@H](O)[C@H](C)O1 [Doxorubicin, reference compound]
Two experiments
  IC50: 0.3 µg/mL
Value in parentheses
  IC50: 500 nM
